Data on one compound can be found in patent publication US20230022157A1 (Achillion Pharmaceuticals, Inc., priority 2018, published 2023).

By UniProt entry, the sequences of proteins in these tests, tags left out. Residues count along the entry.
UniProt P00746, 26-253 limits assumed: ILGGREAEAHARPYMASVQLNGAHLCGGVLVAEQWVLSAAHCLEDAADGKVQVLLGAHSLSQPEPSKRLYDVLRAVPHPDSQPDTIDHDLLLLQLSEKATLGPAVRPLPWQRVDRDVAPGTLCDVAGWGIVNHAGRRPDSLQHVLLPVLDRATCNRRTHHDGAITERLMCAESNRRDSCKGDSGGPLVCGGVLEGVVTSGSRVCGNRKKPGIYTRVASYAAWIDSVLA

Each structure is given as a SMILES string. pIC50: −log10 of the molar value. Structures were worked out from names or drawings and are uncertain.

The experiment concerns the target Human Factor D (Homo sapiens, UniProt P00746). Briefly: Human Factor D Assay. Conditions: read-out: IC50 (Stars); Human Factor D 80 nM, substrate Z-L-Lys-SBzl; Table 2.

The pIC50 is the negative decadic logarithm of the IC50, by convention in mol/L. Regarding `CC(=O)c1cn(CC(=O)N2[C@H]3CC[C@H](C3)[C@H]2C(=O)Nc2nc(C(F)(F)F)ccc2C)c2c(C)cc(-c3cnc4cc(C)nn4c3)cc12`, the pIC50 is above 6.00.
